According to PMC5309953:
Results are given in words; binding and its absence hold for the method and conditions named. Binding seen in cells or lysates may run through a third protein. Some binding calls cover weakened binding; strength is not graded here. Blank lines part the entries; values can stand above or below the binder they belong to.

Tests used:
[1] = target: GFP-IRAV (IRAV with an amino-terminal green fluorescent protein fusion) (human) (UniProt Q9NUL5); assay: co-IP; HEK293 cells overexpressing GFP-IRAV; lysates treated with RNase A, then IP with an antibody to GFP, Western blot for MOV10, UPF1, HuR
[2] = target: GFP-IRAV (IRAV with an amino-terminal green fluorescent protein fusion) (human) (UniProt Q9NUL5); assay: co-IP; HEK293 cells, uninfected or DENV-infected, transfected with GFP-IRAV (GFP-CAT as control); IP of lysates with an antibody to GFP, Western blot for the partner

- binding [1]: binds
- binding [2]: binds
B1: UPF1 (enzyme, UniProt Q92900 1-1129)
chain: MSVEAYGPSSQTLTFLDTEEAELLGADTQGSEFEFTDFTLPSQTQTPPGGPGGPGGGGAGGPGGAGAGAAAGQLDAQVGPEGILQNGAVDDSVAKTSQLLAELNFEEDEEDTYYTKDLPIHACSYCGIHDPACVVYCNTSKKWFCNGRGNTSGSHIVNHLVRAKCKEVTLHKDGPLGETVLECYNCGCRNVFLLGFIPAKADSVVVLLCRQPCASQSSLKDINWDSSQWQPLIQDRCFLSWLVKIPSEQEQLRARQITAQQINKLEELWKENPSATLEDLEKPGVDEEPQHVLLRYEDAYQYQNIFGPLVKLEADYDKKLKESQTQDNITVRWDLGLNKKRIAYFTLPKTDSGNEDLVIIWLRDMRLMQGDEICLRYKGDLAPLWKGIGHVIKVPDNYGDEIAIELRSSVGAPVEVTHNFQVDFVWKSTSFDRMQSALKTFAVDETSVSGYIYHKLLGHEVEDVIIKCQLPKRFTAQGLPDLNHSQVYAVKTVLQRPLSLIQGPPGTGKTVTSATIVYHLARQGNGPVLVCAPSNIAVDQLTEKIHQTGLKVVRLCAKSREAIDSPVSFLALHNQIRNMDSMPELQKLQQLKDETGELSSADEKRYRALKRTAERELLMNADVICCTCVGAGDPRLAKMQFRSILIDESTQATEPECMVPVVLGAKQLILVGDHCQLGPVVMCKKAAKAGLSQSLFERLVVLGIRPIRLQVQYRMHPALSAFPSNIFYEGSLQNGVTAADRVKKGFDFQWPQPDKPMFFYVTQGQEEIASSGTSYLNRTEAANVEKITTKLLKAGAKPDQIGIITPYEGQRSYLVQYMQFSGSLHTKLYQEVEIASVDAFQGREKDFIILSCVRANEHQGIGFLNDPRRLNVALTRARYGVIIVGNPKALSKQPLWNHLLNYYKEQKVLVEGPLNNLRESLMQFSKPRKLVNTINPGARFMTTAMYDAREAIIPGSVYDRSSQGRPSSMYFQTHDQIGMISAGPSHVAAMNIPIPFNLVMPPMPPPGYFGQANGPAAGRGTPKGKTGRGGRQKNRFGLPGPSQTNLPNSQASQDVASQPFSQGALTQGYISMSQPSQMSQPGLSQPELSQDSYLGDEFKSQIDVALSQDSTYQGERAYQHGGVTGLSQY

- binding [1]: binds
- binding [2]: binds
B2: MOV10 (RISC complex RNA helicase) (enzyme, UniProt Q9HCE1 1-1003)
chain: MPSKFSCRQLREAGQCFESFLVVRGLDMETDRERLRTIYNRDFKISFGTPAPGFSSMLYGMKIANLAYVTKTRVRFFRLDRWADVRFPEKRRMKLGSDISKHHKSLLAKIFYDRAEYLHGKHGVDVEVQGPHEARDGQLLIRLDLNRKEVLTLRLRNGGTQSVTLTHLFPLCRTPQFAFYNEDQELPCPLGPGECYELHVHCKTSFVGYFPATVLWELLGPGESGSEGAGTFYIARFLAAVAHSPLAAQLKPMTPFKRTRITGNPVVTNRIEEGERPDRAKGYDLELSMALGTYYPPPRLRQLLPMLLQGTSIFTAPKEIAEIKAQLETALKWRNYEVKLRLLLHLEELQMEHDIRHYDLESVPMTWDPVDQNPRLLTLEVPGVTESRPSVLRGDHLFALLSSETHQEDPITYKGFVHKVELDRVKLSFSMSLLSRFVDGLTFKVNFTFNRQPLRVQHRALELTGRWLLWPMLFPVAPRDVPLLPSDVKLKLYDRSLESNPEQLQAMRHIVTGTTRPAPYIIFGPPGTGKTVTLVEAIKQVVKHLPKAHILACAPSNSGADLLCQRLRVHLPSSIYRLLAPSRDIRMVPEDIKPCCNWDAKKGEYVFPAKKKLQEYRVLITTLITAGRLVSAQFPIDHFTHIFIDEAGHCMEPESLVAIAGLMEVKETGDPGGQLVLAGDPRQLGPVLRSPLTQKHGLGYSLLERLLTYNSLYKKGPDGYDPQFITKLLRNYRSHPTILDIPNQLYYEGELQACADVVDRERFCRWAGLPRQGFPIIFHGVMGKDEREGNSPSFFNPEEAATVTSYLKLLLAPSSKKGKARLSPRSVGVISPYRKQVEKIRYCITKLDRELRGLDDIKDLKVGSVEEFQGQERSVILISTVRSSQSFVQLDLDFNLGFLKNPKRFNVAVTRAKALLIIVGNPLLLGHDPDWKVFLEFCKENGGYTGCPFPAKLDLQQGQNLLQGLSKLSPSTSGPHSHDYLPQEREGEGGLSLQVEPEWRNEL
